Data as given in PubChem BioAssay AID686943 (Drosophila RNAi Screening Center, 2013).
The screen tested about 23,000 reagents; below is a random part of those with a known target gene and a result. 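Extra replicates exist only for a retested subset of genes; insulin dose and duration not given; both raised and lowered dpERK matter.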 Names joined by + are all predicted targets of the reagent. The record does not give: the amount of reagent, the time to read-out.

Purpose: 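Search across the genome for regulators of signalling from receptor tyrosine kinase to ERK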 (primary screen)
Cells: Drosophila S2R+ haemocyte-like cells expressing YFP-tagged ERK (Rolled)
Knock-down reagent: long dsRNA against Drosophila genes
Challenge: insulin stimulation versus unstimulated cells; dose and duration not given
Measured: 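Antibody staining for doubly phosphorylated ERK divided by ERK-YFP signal, as plate z-scores, in insulin-treated and untreated cells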
Scale: replicate 1, z-score of dpERK with insulin and replicate 2, z-score of dpERK with insulin: higher = more active ERK per ERK-YFP after insulin; replicate 1, z-score of dpERK under basal conditions: higher = more basal active ERK per ERK-YFP; replicate 1, z-score of ERK-YFP with insulin: higher = more YFP-tagged ERK signal

target	DRSC id	replicate 1, z-score of dpERK with insulin	replicate 2, z-score of dpERK with insulin	replicate 1, z-score of dpERK under basal conditions	replicate 1, z-score of ERK-YFP with insulin
dcma (decima)	DRSC00246	1.32	0.14	0.44	0.03
dcma (decima)	DRSC00338	-0.8	-0.84	-0.37	0.82
Nepl13 (Neprilysin-like 13)	DRSC15632	-0.07	-0.11	0.55	0.18
Cyp28c1 (Cytochrome P450 28c1)	DRSC20236	-0.01	-0.08	0.17	-0.28
Cyp4p1 (Cytochrome P450 4p1)	DRSC07372	0.98	0.37	-0.47	0.05
CG5107	DRSC15716	0.43	0.88	-0.64	0.36
Rpn13R (Regulatory particle non-ATPase 13-related)	DRSC18404	-0.89	0.44	-0.27	1.39
TwdlH (TweedleH)	DRSC14735	0.68	0	2.85	0.4
GABA-B-R2 (metabotropic GABA-B receptor subtype 2)	DRSC14134	0.3	-0.26	-0.53	1.08
Mal-A1 (Maltase A1)	DRSC07461	0.02	1.07	0.69	0.1
B-H1 (BarH1)	DRSC19334	-3.84	0.76	-0.26	-1.34
B-H1 (BarH1)	DRSC21922	0.42	0.34	-0.52	-0.14
Stim (Stromal interaction molecule)	DRSC20158	-0.08	0.05	-0.79	-0.45
CG5112	DRSC15718	0.01	1.02	0.67	0.51
Akt (Akt kinase)	DRSC14108	1.92	3.54	-0.03	-0.19
mri (mrityu)	DRSC08259	-0.95	-1.69	-0.2	-0.14
CG6738	DRSC16104	-0.56	-0.59	0.22	0.16
Prosalpha6 (Proteasome alpha6 subunit)	DRSC03401	-2.42	-2.9	-3.11	2.36
CG5773	DRSC06955	-3.81	-2.52	-1.22	0.91
aqz + CG9837	DRSC12709	1.58	1.52	0.07	-0.68
Grx1t (Glutaredoxin 1, testis-specific)	DRSC04530	-0.61	-0.52	-1.37	0.12
Pgant3 (Polypeptide N-Acetylgalactosaminyltransferase 3)	DRSC05942	-0.22	-0.24	-0.75	0.43
CG17104	DRSC02573	0.5	0.8	0.43	-0.65
CAH16 (Carbonic anhydrase 16)	DRSC15371	1.19	-0.28	-0.22	-0.32
NC2beta (Negative Cofactor 2beta)	DRSC01895	0.07	-0.13	0.2	-0.8
a5 (antennal protein 5)	DRSC00798	-0.57	-0.37	0.63	0.1
lncRNA:CR43421 (long non-coding RNA:CR43421)	DRSC05819	0.99	-0.05	0.13	-0.14
Ir47a (Ionotropic receptor 47a)	DRSC06215	0.11	0.1	-0.32	0.35
CG7332	DRSC20038	-0.36	-0.59	-0.25	0.2
CG10254	DRSC14153	-0.59	-0.07	0.45	-1.59
Cpr11A (Cuticular protein 11A)	DRSC19861	0.86	0.02	-0.09	0.15
CG33137	DRSC22131	0.44	-0.46	-0.53	0.06
robo1 (roundabout 1)	DRSC04712	0.62	-0.43	-0.01	-0.05
hd (humpty dumpty)	DRSC12316	-0.15	0.37	1.22	-0.87
Sirt1 (Sirtuin 1)	DRSC03435	-0.81	-0.6	-0.64	0.56
bark (bark beetle)	DRSC00635	0.94	0.79	0.82	1.15
CG14760	DRSC06495	0.45	1.08	0.08	-0.42
CG13601	DRSC14604	-0.02	0.2	0.91	1.84
AANATL6 (Arylalkylamine N-acetyltransferase-like 6)	DRSC06773	0.69	-0.38	1.2	-0.43
ND-MWFE (NADH dehydrogenase (ubiquinone) MWFE subunit)	DRSC06364	0.23	-0.78	0.24	-0.72
Pdk (Pyruvate dehydrogenase kinase)	DRSC07504	0.04	4.43	0.24	-0.25
CG5435	DRSC02860	-0.4	0.23	-0.98	0.04
CG6294 + CG6299 + CG15642	DRSC19981	0.64	1.11	0.87	0.12
CG43066	DRSC06927	0.56	-0.94	-1	0.73
alpha-Est9 (alpha-Esterase-9)	DRSC12621	-0.3	0.53	-0.16	0.53
CG30148	DRSC06391	0.35	0.39	1.23	-0.05
ldbr (lariat debranching enzyme)	DRSC10933	0.17	-0.21	-0.12	-0.04
CG2150	DRSC15420	-1.98	0.11	-0.37	-0.46
CG30048	DRSC22205	-0.31	0.45	-0.35	-0.6
CG7342	DRSC16230	0.75	-0.05	0.06	0.39
CG31798	DRSC01702	0.48	0.33	0.19	-0.5
Fum1 (Fumarase 1)	DRSC18344	1.67	1.2	1.19	-0.19
CG34299	DRSC13974	0.27	-0.64	0.22	0.69
tum (tumbleweed)	DRSC07575	-0.48	0.28	1.34	-0.25
CG10845	DRSC14272	-0.41	-0.56	-0.11	0.05
Dhfr (Dihydrofolate reductase)	DRSC16646	2	0	-0.23	-1.36
Tsp97E (Tetraspanin 97E)	DRSC16019	-0.05	-0.05	-0.58	0.73

Part of the list above in another layout.
{"target": "Grx1t (Glutaredoxin 1, testis-specific)", "DRSC id": "DRSC04530", "replicate 1, z-score of dpERK with insulin": -0.61, "replicate 2, z-score of dpERK with insulin": -0.52, "replicate 1, z-score of dpERK under basal conditions": -1.37, "replicate 1, z-score of ERK-YFP with insulin": 0.12}
{"target": "Pgant3 (Polypeptide N-Acetylgalactosaminyltransferase 3)", "DRSC id": "DRSC05942", "replicate 1, z-score of dpERK with insulin": -0.22, "replicate 2, z-score of dpERK with insulin": -0.24, "replicate 1, z-score of dpERK under basal conditions": -0.75, "replicate 1, z-score of ERK-YFP with insulin": 0.43}
{"target": "CG17104", "DRSC id": "DRSC02573", "replicate 1, z-score of dpERK with insulin": 0.5, "replicate 2, z-score of dpERK with insulin": 0.8, "replicate 1, z-score of dpERK under basal conditions": 0.43, "replicate 1, z-score of ERK-YFP with insulin": -0.65}
{"target": "CAH16 (Carbonic anhydrase 16)", "DRSC id": "DRSC15371", "replicate 1, z-score of dpERK with insulin": 1.19, "replicate 2, z-score of dpERK with insulin": -0.28, "replicate 1, z-score of dpERK under basal conditions": -0.22, "replicate 1, z-score of ERK-YFP with insulin": -0.32}
{"target": "NC2beta (Negative Cofactor 2beta)", "DRSC id": "DRSC01895", "replicate 1, z-score of dpERK with insulin": 0.07, "replicate 2, z-score of dpERK with insulin": -0.13, "replicate 1, z-score of dpERK under basal conditions": 0.2, "replicate 1, z-score of ERK-YFP with insulin": -0.8}
{"target": "a5 (antennal protein 5)", "DRSC id": "DRSC00798", "replicate 1, z-score of dpERK with insulin": -0.57, "replicate 2, z-score of dpERK with insulin": -0.37, "replicate 1, z-score of dpERK under basal conditions": 0.63, "replicate 1, z-score of ERK-YFP with insulin": 0.1}
{"target": "lncRNA:CR43421 (long non-coding RNA:CR43421)", "DRSC id": "DRSC05819", "replicate 1, z-score of dpERK with insulin": 0.99, "replicate 2, z-score of dpERK with insulin": -0.05, "replicate 1, z-score of dpERK under basal conditions": 0.13, "replicate 1, z-score of ERK-YFP with insulin": -0.14}
{"target": "Ir47a (Ionotropic receptor 47a)", "DRSC id": "DRSC06215", "replicate 1, z-score of dpERK with insulin": 0.11, "replicate 2, z-score of dpERK with insulin": 0.1, "replicate 1, z-score of dpERK under basal conditions": -0.32, "replicate 1, z-score of ERK-YFP with insulin": 0.35}
